PubChem BioAssay AID1347076 (National Center for Advancing Translational Sciences (NCATS), 2019)
Among all 400,000 compounds or so, about 13,000 (3.2%) were called active. The shares of active, inactive and inconclusive entries below differ from those in the screen. Calls follow the shape of the dose curve; as a rule, active = well fitted cell-killing curve with a large enough effect; inconclusive = small, poorly fitted or top-dose-only effect, or effect the other way; inactive = flat fitted curve, though single readings scatter. Potencies beside an inconclusive call are fits to weak or partial responses and may not hold up.

Assay: qHTS assay for MDR1-selective chemotherapeutics: Primary screen using the drug-selected MDR subline cells KB-V1; also: nearly all actives have a fitted effect of over 60% in size
Settings: KB-V1 MDR cells viability, CellTiter-Glo, 72 h; activity change, negative = cytotoxicity: at 46.1 µM (top of the series)
How it was run: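 Following 72 h at 37 degrees C with compound, KB-V1 cell viability was read by CellTiter-Glo luminescence, medium being phenol-red-free DMEM plus 10% FBS; concentration-response parameters came from normalized, curve-fitted qHTS data.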
% is scaled to controls: 0 for no effect and ±100 for the full control effect; potency is read from the fitted curve at half-maximal effect.

**Q.** With `O=C(Nc1ccc(Cl)c(Cl)c1)OCCNC(=O)c1ccncc1` as the compound, how does the Potency read?
**A.** inconclusive: 18.4 µM [cytotoxic, single point]

**Q.** With `CCOC(=O)[C@]12CCC=C1N(Cc1ccccc1)C(=O)[C@H](CC(=O)N1CCSCC1)C2` as the compound, how does the Potency read?
**A.** inconclusive: 7.31 µM [cytotoxic, partial curve]

**Q.** With `CCC(=O)Nc1cccc(NC(=O)c2ccc3c(c2)OCCO3)c1` as the compound, how does the Potency read?
**A.** inconclusive: 14.6 µM [cytotoxic, single point]

**Q.** Which Potency does the source give for `CCCCOC(=O)c1ccc(NC2=NS(=O)(=O)c3ccccc32)cc1` here?
**A.** inconclusive: 29.1 µM [rising, single point]

**Q.** For `CSc1ccc(CN2CCC2(C)C(=O)Nc2cccc(NS(C)(=O)=O)c2)cc1` (stereo unspecified), which Potency is on record?
**A.** inconclusive: 23.1 µM [cytotoxic, single point]

**Q.** With `CN(C(=O)CN1C(=O)/C(=C/c2ccc(Cl)cc2)SC1=S)C1CCS(=O)(=O)C1` (stereo unspecified) as the compound, how does the Potency read?
**A.** inconclusive: 16.4 µM [rising, single point]

**Q.** With `CN1C(=O)C(CC(=O)Nc2ccc(Cl)cc2)N(Cc2ccco2)C1=S` (stereo unspecified) as the compound, how does the “activity change, negative = cytotoxicity” value read?
**A.** inactive: -28.3%

**Q.** For `COc1ccc(C(=O)Nc2nc(C)c(C(=O)N(C)C)s2)cc1OC`, which Potency is on record?
**A.** inconclusive: 25.9 µM [cytotoxic, single point]

**Q.** With `CNc1ccc(/C=C/C(=O)c2cccc3ccccc23)cc1[N+](=O)[O-]` as the compound, how does the Potency read?
**A.** active: 14.6 µM

**Q.** Which Potency does the source give for `Cc1ccc(CC(=O)Nc2cc([N+](=O)[O-])ccc2F)cc1` here?
**A.** inconclusive: 7.31 µM [rising, partial curve, poor fit]

**Q.** For `O=C(CN(C(=O)CCC(=O)Nc1nccs1)c1ccccc1F)NCC1CCCO1` (stereo unspecified), which Potency is on record?
**A.** inconclusive: 18.4 µM [rising, partial curve]

**Q.** With `CC[n+]1c(/C=C2\C=C(C)CC(C)C2)sc2ccccc21` (stereo unspecified) as the compound, how does the “activity change, negative = cytotoxicity” value read?
**A.** inactive: -2.5%

**Q.** With `Cc1ccc(-n2[nH]c(C)c(C=Nc3cc(C)ccn3)c2=O)cc1` as the compound, how does the Potency read?
**A.** inconclusive: 29.1 µM [cytotoxic, single point]

**Q.** With `C=CCOc1c(Br)cc(CNn2cn[nH]c2=S)cc1OC` as the compound, how does the Potency read?
**A.** inconclusive: 23.1 µM [rising, single point]

**Q.** Which Potency does the source give for `CCC(=O)Nc1cccc(NC(=O)c2cc3ccccc3o2)c1` here?
**A.** inconclusive: 16.4 µM [cytotoxic, single point]

**Q.** For `CCOP(=O)(OCC)c1nc(-c2cccc3ccccc23)oc1NCCc1ccc(OC)cc1`, which Potency is on record?
**A.** active: 5.17 µM

**Q.** With `COC(=O)Cn1c(=O)c2c(nc3n2CC(C)CN3CCc2ccccc2)n(C)c1=O` (stereo unspecified) as the compound, how does the “activity change, negative = cytotoxicity” value read?
**A.** inactive: -5.41%

**Q.** With `O=C(O)c1cccc(NS(=O)(=O)c2ccc3c(c2)OCCCO3)c1` as the compound, how does the Potency read?
**A.** inconclusive: 8.2 µM [rising, partial curve]

**Q.** For `CCOC(=O)c1cc2sccc2n1CC(=O)Nc1ccc2c(c1)OCCO2`, which Potency is on record?
**A.** inconclusive: 18.4 µM [cytotoxic, partial curve]

**Q.** With `Oc1ccccc1-c1cc(C(F)(F)C(F)F)[nH]n1` as the compound, how does the “activity change, negative = cytotoxicity” value read?
**A.** inactive: -13.8%

**Q.** For `C/C(=N\NC(=O)COc1c(C)cccc1C)c1cccs1`, which “activity change, negative = cytotoxicity” value is on record?
**A.** inactive: -15.3%

**Q.** Which “activity change, negative = cytotoxicity” value does the source give for `O=C(Nc1csc(Cc2c(Cl)cccc2Cl)n1)NN1CCOCC1` here?
**A.** inactive: -15%

**Q.** For `CC(=O)NCc1ccc(S(=O)(=O)N/N=C/c2ccc(N(C)C)cc2)cc1`, which “activity change, negative = cytotoxicity” value is on record?
**A.** inactive: -3.61%

**Q.** With `COc1ccc(C(=O)Cc2ccc(F)cc2)c(OC)c1` as the compound, how does the Potency read?
**A.** inconclusive: 18.4 µM [cytotoxic, partial curve, poor fit]

**Q.** Which Potency does the source give for `Cc1ccc(NC(=O)C(=O)NCC2CCCN2S(=O)(=O)c2cccs2)cc1` (stereo unspecified) here?
**A.** inconclusive: 25.9 µM [cytotoxic, partial curve, poor fit]

**Q.** With `O=C(CSc1nc2ccc(Cl)cc2[nH]1)NCCc1ccccc1` as the compound, how does the Potency read?
**A.** active: 16.4 µM

**Q.** For `CC(=O)c1cccc(NS(=O)(=O)c2ccc(-c3cc(C)no3)s2)c1`, which Potency is on record?
**A.** inconclusive: 29.1 µM [rising, single point]

**Q.** Which Potency does the source give for `Cc1cc(NCCN(C)C)n2nc(-c3cccs3)cc2n1` here?
**A.** inconclusive: 18.4 µM [cytotoxic, single point]

**Q.** For `CC(C)C(=O)N(Cc1cc2ccccc2[nH]c1=O)C(C)C`, which Potency is on record?
**A.** active: 16.4 µM

**Q.** Which “activity change, negative = cytotoxicity” value does the source give for `COc1ccc(Nc2ccc3cc(S(=O)(=O)N4CCCC4)ccc3n2)cc1OC` here?
**A.** inactive: 7.8%

**Q.** Which Potency does the source give for `Brc1ccc(C2C3=C(Nc4ncnn42)c2ccccc2OC3c2ccncc2)cc1` (stereo unspecified) here?
**A.** active: 20.6 µM

**Q.** With `Cc1ccc(OCCCN2C(=O)C(=O)c3cc(C)ccc32)cc1` as the compound, how does the “activity change, negative = cytotoxicity” value read?
**A.** inactive: 0.416%

**Q.** With `O=C(Nc1ccc(Cl)c(-c2nc3ccccc3o2)c1)c1cccc2c(Cl)cccc12` as the compound, how does the “activity change, negative = cytotoxicity” value read?
**A.** inactive: 2.08%

**Q.** With `Cc1ccc(C(C(=O)NCc2ccccc2)N(C(=O)c2csnn2)c2cccc3ccccc23)o1` (stereo unspecified) as the compound, how does the Potency read?
**A.** inconclusive: 29.1 µM [cytotoxic, single point]

**Q.** For `C/C=C/c1ccc(OCCN2C(=O)NC(C)(C)C2=O)c(OC)c1`, which Potency is on record?
**A.** inconclusive: 20.6 µM [cytotoxic, partial curve, poor fit]

**Q.** Which Potency does the source give for `NC(=O)C1CCN(C2=C(Cl)C(=O)c3ccccc3C2=O)CC1` here?
**A.** inconclusive: 23.1 µM [cytotoxic, single point]

**Q.** For `CCN(CC(=O)Nc1ccccc1OC)C(=O)CSCC(=O)Nc1ccc(OC)cc1`, which Potency is on record?
**A.** inconclusive: 0.082 µM [rising, full curve]

**Q.** With `O=C1C2CCCCN2C(=O)N1CCCCN1CCN(c2cccc(Br)c2)CC1` (stereo unspecified) as the compound, how does the “activity change, negative = cytotoxicity” value read?
**A.** inactive: 0.992%

**Q.** With `COC(=O)NNC(=S)Nc1cc(OC)ccc1OC` as the compound, how does the “activity change, negative = cytotoxicity” value read?
**A.** inactive: 1.83%

**Q.** Which Potency does the source give for `COC(=O)[C@H](Cc1ccccc1)NC(=O)N1CCN(c2ccc(F)cc2)CC1` here?
**A.** inconclusive: 0.291 µM [rising, full curve, poor fit]

**Q.** Which “activity change, negative = cytotoxicity” value does the source give for `COc1ccc(CNC(=O)CN(c2ccccc2OC)S(=O)(=O)c2cccs2)cc1` here?
**A.** inactive: 0%

**Q.** Which Potency does the source give for `COc1ccc(-c2cc(-c3cc(OC)ccc3O)[nH]n2)cc1` here?
**A.** inconclusive: 3.66 µM [cytotoxic, partial curve]

**Q.** With `Nc1cccc(-c2nc3ncccc3o2)c1` as the compound, how does the Potency read?
**A.** inconclusive: 13 µM [rising, partial curve, poor fit]

**Q.** With `Fc1ccc(-c2nc3c4c(-c5ccccc5)c(-c5ccccc5)oc4ncn3n2)cc1` as the compound, how does the Potency read?
**A.** inconclusive: 18.4 µM [rising, single point]

**Q.** Which Potency does the source give for `O=C(NCc1ccccc1F)Nc1ccc([N+](=O)[O-])cc1` here?
**A.** inconclusive: 29.1 µM [cytotoxic, single point]

**Q.** Which Potency does the source give for `Cc1ccccc1CC(=O)N1CCCC(CCC(=O)N2CCN(c3ccccn3)CC2)C1` (stereo unspecified) here?
**A.** inconclusive: 4.61 µM [cytotoxic, partial curve, poor fit]
